# Measurements as given in PubChem BioAssay (Tox21).
# By UniProt entry, the sequences of proteins in these tests, tags left out.
# UniProt P11712, whole entry, looked up: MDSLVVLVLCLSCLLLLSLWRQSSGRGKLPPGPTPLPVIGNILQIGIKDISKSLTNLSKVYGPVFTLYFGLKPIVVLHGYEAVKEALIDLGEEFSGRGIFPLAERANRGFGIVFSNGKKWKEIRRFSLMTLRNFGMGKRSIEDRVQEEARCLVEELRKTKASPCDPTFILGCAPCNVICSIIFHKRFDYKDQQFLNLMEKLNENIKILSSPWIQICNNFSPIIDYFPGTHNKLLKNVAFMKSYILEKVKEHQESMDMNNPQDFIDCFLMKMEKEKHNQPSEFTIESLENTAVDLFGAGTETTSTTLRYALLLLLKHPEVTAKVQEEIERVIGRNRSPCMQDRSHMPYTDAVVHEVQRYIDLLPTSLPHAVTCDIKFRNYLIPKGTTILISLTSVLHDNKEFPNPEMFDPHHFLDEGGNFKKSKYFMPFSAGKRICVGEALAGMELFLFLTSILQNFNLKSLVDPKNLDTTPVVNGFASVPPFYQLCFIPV
# “And” between values parts separate entries of the source, which are not always exact repeats. Identical values can stand only once. Inconclusive means that the source gave no clear call. Such entries were picked first, then a sample of the others. Potencies beside an inconclusive call are fits to weak or partial responses and may not hold up. Some compounds were tested as several samples or in several runs, with calls that do not always agree. The source made the active and inactive calls. The call rests on the fitted dose curve; in most records, active means well fitted inhibition curve with a large enough effect in the repeat runs; inconclusive means weak or mixed curves; inactive means no such curve, though single readings can be large or run the other way.
# Target: Cytochrome P450 2C9 (Homo sapiens) (UniProt P11712)
# Test: Cytochrome P450 Family 2 Subfamily C Member 9 (CYP2C9) small molecule antagonists: luciferase reporter qHTS assay (AID 1671198); further: nearly all actives have a fitted effect of over 50% in size
# Details: P450-Glo CYP2C9 enzyme assay, luciferin luminescence; series mostly up to 115 µM; activity change, negative = inhibition: at the top concentration
# Method in brief: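 Enzyme-substrate mix preincubated with compound 10 min at room temperature; reaction started with NADPH regeneration solution, 1 h 37C. Luminescent luciferin product read after 20 min detection reagent.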
# On the % scale 0 is the no-effect control and ±100 the full control effect; potency means the concentration at half of the fitted maximal effect.
Compound,Potency,"activity change, negative = inhibition"
CN(C)c1ccc(N(C)C)cc1,active: 20.1 µM,–
COc1cc(CC(C)N)cc(OC)c1OC (configuration not stated),–,inactive: 0.866%
Cc1cccc(N)c1,"inconclusive: 71.4 µM [inhibitor, partial curve, poor fit]",–
CCCCC1C(=O)NC(=O)N(C2CCCCC2)C1=O (configuration not stated),"inconclusive: 34.7 µM [inhibitor, partial curve, poor fit]",–
CO/N=C(/C(=O)OC)c1ccccc1COc1ccccc1C,active: 28.3 µM,–
CCN(CC)C(=S)[S-].CCN(CC)C(=S)[S-].[Zn+2],active: 15.8 µM,–
CC(C)(C)N(NC(=O)c1ccc(Cl)cc1)C(=O)c1ccccc1,active: 11.2 µM,–
CC(O)CCO (configuration not stated),"inconclusive: 79.6 µM [inhibitor, partial curve]",–
ClC(Cl)Br,–,inactive: 4.39%
Nc1ccccc1,"inconclusive: 56.4 µM [inhibitor, partial curve, poor fit] and inconclusive: 27.5 µM [inhibitor, partial curve, poor fit]",–
COC(=O)C(Cl)C(=O)OC,–,inactive: -1.08% [at 53 µM]
O=c1[nH]c(=O)[nH]c(=O)[nH]1,"inconclusive: 70.9 µM [inhibitor, partial curve, poor fit]",–
CN(C1CCCCC1)C1CCCCC1,"inconclusive: 79.6 µM [inhibitor, partial curve]",–
O=C(O)C(F)(F)C(F)(F)C(F)(F)C(F)(F)C(F)(F)C(F)(F)C(F)(F)C(F)(F)C(F)(F)C(F)(F)F,active: 5.34 µM,–
CON(C)C(=O)Nc1ccc(Cl)cc1,"inconclusive: 39.9 µM [inhibitor, partial curve]",–
CCCCOC(=O)c1ccccc1N,"inconclusive: 31.9 µM [inhibitor, partial curve]",–
CCOP(OCC)OCC,"inconclusive: 91 µM [inhibitor, partial curve, poor fit]",–
CCC1(c2ccccc2)C(=O)N=C(O)NC1=O (configuration not stated),active: 61.6 µM,–
C#C[C@]1(O)CC[C@H]2[C@@H]3CCC4=CC(=O)CC[C@]4(C)[C@H]3CC[C@@]21C,"inconclusive: 5.64 µM [inhibitor, full curve] and inconclusive: 4.36 µM [inhibitor, full curve]",–

Compound,Potency,"activity change, negative = inhibition"
CC(C)(C1CCC(O)CC1)C1CCC(O)CC1 (configuration not stated),"inconclusive: 71 µM [inhibitor, partial curve]",–
CC(=O)Nc1cc([As](=O)(O)O)ccc1O,–,inactive: 2.89% [at 53 µM]
CCCCCOC(=O)c1ccccc1C(=O)OCCCCC,active: 28.2 µM and active: 7.96 µM,–
S=C=Nc1ccccc1,active: 65.3 µM,–
COC(=O)N(C(=O)N1COC2(C(=O)OC)Cc3cc(Cl)ccc3C2=N1)c1ccc(OC(F)(F)F)cc1 (configuration not stated),active: 4.9 µM,–
O=C(O)C(Br)CBr (configuration not stated),"inconclusive: 64.4 µM [inhibitor, partial curve, poor fit]",–
O=C(CBr)c1ccccc1,"inconclusive: 63.7 µM [inhibitor, partial curve]",–
C#C[C@]1(O)CC[C@H]2[C@@H]3CCC4=CC(=O)CCC4=C3C=C[C@@]21CC,active: 0.776 µM,–
O=Cc1ccc2c(c1)OCO2,"inconclusive: 49.6 µM [inhibitor, partial curve, poor fit]",–
C[C@@H]1CC2=CC(=O)CC[C@@H]2[C@H]2CC[C@@]3(C)[C@@H](CC[C@]3(C)O)[C@@H]21,"inconclusive: 19.5 µM [inhibitor, partial curve, poor fit]",–
CC(Cl)C(C)Cl (configuration not stated),–,inactive: -8.28%
CC(C)(C)OOC(C)(C)CCC(C)(C)OOC(C)(C)C,"inconclusive: 89.4 µM [inhibitor, single point]",–
CCNCC,"inconclusive: 79.6 µM [inhibitor, partial curve, poor fit]",–
Clc1ccccc1-c1nnc(-c2ccccc2Cl)nn1,"inconclusive: 63.1 µM [inhibitor, partial curve]",–
O=C(CBr)Nc1ccc(Cl)cc1C(=O)c1ccccc1F,"inconclusive: 15.5 µM [inhibitor, partial curve]",–
CCOP(=S)(NC(C)C)Oc1ccccc1C(=O)OC(C)C (configuration not stated),active: 1.42 µM,–
Cc1cc(Cl)ccc1OCC(=O)O,"inconclusive: 62.9 µM [inhibitor, partial curve] and inconclusive: 50.2 µM [inhibitor, partial curve, poor fit] and inconclusive: 44.8 µM [inhibitor, partial curve]",–
Cc1cc(Cl)ccc1N=CN(C)C,"inconclusive: 39.9 µM [inhibitor, partial curve]",–
